Results from the supplement of paper PMC10849652.
Some of the results follow.

Protein sequences, listed by entry. Tags and fused reporters are not part of them. Lines headed by an entry give the natural chain unless they say otherwise; changes in a name come on top.
UniProt Q08AD1: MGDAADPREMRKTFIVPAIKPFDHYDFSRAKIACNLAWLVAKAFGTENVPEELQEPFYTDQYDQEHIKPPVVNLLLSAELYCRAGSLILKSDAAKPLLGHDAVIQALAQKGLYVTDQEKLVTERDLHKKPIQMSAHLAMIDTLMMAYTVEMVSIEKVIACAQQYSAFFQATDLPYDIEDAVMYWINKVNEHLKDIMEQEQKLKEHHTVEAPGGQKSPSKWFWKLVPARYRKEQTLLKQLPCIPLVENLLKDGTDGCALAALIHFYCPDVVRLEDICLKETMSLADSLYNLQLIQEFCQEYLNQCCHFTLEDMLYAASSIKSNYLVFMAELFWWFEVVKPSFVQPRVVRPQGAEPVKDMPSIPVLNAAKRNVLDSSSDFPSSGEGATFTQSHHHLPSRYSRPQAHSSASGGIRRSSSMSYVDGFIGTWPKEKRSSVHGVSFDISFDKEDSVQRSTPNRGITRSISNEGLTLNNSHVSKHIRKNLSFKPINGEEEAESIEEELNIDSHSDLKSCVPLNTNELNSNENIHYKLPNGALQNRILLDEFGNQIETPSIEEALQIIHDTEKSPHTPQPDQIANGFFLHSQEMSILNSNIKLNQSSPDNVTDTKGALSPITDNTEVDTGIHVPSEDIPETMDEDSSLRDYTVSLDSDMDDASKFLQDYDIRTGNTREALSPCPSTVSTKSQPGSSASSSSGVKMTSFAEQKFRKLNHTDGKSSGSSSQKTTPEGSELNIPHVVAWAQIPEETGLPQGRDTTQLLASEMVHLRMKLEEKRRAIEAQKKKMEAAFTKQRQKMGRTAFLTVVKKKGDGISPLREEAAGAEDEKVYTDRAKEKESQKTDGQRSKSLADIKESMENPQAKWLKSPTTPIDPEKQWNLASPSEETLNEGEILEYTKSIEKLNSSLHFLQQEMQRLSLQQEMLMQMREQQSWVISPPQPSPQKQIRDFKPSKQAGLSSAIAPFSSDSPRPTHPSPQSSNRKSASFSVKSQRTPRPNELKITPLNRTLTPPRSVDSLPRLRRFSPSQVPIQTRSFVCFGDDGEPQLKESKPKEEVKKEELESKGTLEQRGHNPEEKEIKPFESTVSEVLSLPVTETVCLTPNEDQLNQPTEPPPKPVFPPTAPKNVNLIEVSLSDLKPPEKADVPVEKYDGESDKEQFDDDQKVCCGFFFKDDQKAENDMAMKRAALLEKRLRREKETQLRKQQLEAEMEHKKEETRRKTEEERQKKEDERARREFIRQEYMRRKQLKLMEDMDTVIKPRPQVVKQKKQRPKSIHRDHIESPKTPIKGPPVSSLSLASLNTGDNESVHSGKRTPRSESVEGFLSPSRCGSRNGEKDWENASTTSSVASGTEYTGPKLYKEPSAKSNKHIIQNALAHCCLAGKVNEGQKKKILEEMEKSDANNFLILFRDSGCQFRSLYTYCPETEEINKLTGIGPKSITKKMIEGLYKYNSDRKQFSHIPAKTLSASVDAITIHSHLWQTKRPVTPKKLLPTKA
UniProt Q9Y2V0: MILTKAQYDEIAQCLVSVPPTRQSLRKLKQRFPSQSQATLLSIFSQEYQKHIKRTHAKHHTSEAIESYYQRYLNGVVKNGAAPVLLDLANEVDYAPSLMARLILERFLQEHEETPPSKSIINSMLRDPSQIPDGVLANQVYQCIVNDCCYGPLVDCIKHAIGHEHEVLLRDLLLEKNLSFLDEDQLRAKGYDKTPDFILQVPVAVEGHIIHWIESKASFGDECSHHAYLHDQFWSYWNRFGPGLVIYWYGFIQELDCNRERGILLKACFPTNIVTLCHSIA
UniProt P47756, whole entry, looked up: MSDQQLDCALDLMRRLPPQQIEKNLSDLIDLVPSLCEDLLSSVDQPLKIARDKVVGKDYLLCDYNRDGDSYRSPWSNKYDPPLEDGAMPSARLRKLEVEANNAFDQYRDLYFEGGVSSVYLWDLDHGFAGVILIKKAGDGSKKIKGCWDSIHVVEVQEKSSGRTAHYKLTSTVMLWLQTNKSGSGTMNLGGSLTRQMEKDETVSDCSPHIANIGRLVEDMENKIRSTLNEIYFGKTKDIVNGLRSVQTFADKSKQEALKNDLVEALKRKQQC
UniProt P05937: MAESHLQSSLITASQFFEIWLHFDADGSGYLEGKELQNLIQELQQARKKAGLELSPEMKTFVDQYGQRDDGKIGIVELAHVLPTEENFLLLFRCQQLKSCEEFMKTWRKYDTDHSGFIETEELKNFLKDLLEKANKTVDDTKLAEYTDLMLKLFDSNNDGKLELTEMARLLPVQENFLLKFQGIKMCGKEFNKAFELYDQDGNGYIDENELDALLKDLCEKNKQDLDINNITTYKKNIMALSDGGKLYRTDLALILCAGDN
UniProt P00915: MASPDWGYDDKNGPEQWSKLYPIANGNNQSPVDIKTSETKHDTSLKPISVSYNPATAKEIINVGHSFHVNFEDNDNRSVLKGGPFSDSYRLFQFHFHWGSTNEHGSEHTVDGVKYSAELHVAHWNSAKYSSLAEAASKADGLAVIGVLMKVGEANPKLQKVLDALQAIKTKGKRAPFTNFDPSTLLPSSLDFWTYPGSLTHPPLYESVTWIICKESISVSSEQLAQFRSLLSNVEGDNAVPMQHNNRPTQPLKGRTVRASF
UniProt Q96LT7: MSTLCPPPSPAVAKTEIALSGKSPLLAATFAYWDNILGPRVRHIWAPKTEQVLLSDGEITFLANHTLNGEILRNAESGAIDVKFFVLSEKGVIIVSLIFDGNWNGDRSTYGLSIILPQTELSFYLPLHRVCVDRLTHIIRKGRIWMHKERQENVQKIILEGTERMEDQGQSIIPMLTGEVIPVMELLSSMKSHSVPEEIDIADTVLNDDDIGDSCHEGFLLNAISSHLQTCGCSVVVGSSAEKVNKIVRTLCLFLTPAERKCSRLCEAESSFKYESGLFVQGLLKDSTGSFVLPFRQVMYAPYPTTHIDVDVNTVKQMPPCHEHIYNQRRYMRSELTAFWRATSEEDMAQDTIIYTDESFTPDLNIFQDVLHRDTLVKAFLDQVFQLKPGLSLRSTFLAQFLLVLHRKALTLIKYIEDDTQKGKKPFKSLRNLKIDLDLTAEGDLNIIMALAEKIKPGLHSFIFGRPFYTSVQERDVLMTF
UniProt Q7Z7L8: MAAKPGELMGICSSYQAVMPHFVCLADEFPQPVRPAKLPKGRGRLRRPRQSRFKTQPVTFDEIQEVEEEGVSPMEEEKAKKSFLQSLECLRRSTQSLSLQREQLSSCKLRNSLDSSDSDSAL
UniProt Q96MD7: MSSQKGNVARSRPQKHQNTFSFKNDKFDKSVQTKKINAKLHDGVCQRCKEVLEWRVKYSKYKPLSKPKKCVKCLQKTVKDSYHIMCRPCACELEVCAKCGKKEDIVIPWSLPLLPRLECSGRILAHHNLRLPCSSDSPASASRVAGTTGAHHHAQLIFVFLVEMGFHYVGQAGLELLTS
UniProt Q9BSJ5: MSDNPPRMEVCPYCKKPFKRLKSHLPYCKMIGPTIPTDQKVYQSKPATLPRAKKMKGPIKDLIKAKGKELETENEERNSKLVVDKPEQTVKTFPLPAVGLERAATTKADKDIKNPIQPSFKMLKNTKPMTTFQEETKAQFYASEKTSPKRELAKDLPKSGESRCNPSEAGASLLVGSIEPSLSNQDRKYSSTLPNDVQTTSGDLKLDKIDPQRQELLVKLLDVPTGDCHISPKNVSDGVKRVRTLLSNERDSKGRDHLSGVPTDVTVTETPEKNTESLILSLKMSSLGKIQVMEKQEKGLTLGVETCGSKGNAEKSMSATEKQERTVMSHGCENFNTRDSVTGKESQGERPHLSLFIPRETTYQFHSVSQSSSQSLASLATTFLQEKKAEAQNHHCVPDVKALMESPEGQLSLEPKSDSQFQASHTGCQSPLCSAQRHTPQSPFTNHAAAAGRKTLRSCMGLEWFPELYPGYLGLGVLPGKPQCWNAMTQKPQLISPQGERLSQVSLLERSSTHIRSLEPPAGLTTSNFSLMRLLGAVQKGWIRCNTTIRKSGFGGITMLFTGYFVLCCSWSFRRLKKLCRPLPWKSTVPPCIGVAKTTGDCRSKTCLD
UniProt Q9UFG5: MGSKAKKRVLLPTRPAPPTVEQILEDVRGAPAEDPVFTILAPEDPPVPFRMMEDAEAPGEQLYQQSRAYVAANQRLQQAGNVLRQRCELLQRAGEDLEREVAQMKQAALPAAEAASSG
UniProt Q9H9S4: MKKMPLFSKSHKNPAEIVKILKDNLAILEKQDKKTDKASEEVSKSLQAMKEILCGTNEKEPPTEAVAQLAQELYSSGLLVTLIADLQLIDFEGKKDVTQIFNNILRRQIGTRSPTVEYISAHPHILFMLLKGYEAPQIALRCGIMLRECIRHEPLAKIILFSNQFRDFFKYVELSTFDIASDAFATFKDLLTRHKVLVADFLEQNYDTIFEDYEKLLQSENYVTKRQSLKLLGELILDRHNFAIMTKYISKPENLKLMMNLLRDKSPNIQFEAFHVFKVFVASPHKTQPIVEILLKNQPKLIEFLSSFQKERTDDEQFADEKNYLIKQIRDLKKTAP
UniProt Q7Z4R8: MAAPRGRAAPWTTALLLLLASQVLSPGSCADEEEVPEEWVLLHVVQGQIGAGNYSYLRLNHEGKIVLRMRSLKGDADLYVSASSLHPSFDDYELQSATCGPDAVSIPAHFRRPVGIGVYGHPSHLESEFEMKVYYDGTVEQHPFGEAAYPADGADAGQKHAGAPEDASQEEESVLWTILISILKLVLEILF
UniProt P0DMB2: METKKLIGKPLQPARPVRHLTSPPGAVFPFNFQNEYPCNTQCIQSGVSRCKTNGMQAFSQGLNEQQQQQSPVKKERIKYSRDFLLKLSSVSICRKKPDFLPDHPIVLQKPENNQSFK
UniProt Q8IYL3: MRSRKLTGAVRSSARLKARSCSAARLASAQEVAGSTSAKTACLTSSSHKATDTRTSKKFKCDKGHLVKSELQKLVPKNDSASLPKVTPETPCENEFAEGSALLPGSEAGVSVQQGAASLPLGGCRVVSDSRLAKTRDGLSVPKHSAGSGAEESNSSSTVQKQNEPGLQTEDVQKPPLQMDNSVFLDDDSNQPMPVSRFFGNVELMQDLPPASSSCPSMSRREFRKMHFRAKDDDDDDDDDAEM
UniProt Q5SNV9: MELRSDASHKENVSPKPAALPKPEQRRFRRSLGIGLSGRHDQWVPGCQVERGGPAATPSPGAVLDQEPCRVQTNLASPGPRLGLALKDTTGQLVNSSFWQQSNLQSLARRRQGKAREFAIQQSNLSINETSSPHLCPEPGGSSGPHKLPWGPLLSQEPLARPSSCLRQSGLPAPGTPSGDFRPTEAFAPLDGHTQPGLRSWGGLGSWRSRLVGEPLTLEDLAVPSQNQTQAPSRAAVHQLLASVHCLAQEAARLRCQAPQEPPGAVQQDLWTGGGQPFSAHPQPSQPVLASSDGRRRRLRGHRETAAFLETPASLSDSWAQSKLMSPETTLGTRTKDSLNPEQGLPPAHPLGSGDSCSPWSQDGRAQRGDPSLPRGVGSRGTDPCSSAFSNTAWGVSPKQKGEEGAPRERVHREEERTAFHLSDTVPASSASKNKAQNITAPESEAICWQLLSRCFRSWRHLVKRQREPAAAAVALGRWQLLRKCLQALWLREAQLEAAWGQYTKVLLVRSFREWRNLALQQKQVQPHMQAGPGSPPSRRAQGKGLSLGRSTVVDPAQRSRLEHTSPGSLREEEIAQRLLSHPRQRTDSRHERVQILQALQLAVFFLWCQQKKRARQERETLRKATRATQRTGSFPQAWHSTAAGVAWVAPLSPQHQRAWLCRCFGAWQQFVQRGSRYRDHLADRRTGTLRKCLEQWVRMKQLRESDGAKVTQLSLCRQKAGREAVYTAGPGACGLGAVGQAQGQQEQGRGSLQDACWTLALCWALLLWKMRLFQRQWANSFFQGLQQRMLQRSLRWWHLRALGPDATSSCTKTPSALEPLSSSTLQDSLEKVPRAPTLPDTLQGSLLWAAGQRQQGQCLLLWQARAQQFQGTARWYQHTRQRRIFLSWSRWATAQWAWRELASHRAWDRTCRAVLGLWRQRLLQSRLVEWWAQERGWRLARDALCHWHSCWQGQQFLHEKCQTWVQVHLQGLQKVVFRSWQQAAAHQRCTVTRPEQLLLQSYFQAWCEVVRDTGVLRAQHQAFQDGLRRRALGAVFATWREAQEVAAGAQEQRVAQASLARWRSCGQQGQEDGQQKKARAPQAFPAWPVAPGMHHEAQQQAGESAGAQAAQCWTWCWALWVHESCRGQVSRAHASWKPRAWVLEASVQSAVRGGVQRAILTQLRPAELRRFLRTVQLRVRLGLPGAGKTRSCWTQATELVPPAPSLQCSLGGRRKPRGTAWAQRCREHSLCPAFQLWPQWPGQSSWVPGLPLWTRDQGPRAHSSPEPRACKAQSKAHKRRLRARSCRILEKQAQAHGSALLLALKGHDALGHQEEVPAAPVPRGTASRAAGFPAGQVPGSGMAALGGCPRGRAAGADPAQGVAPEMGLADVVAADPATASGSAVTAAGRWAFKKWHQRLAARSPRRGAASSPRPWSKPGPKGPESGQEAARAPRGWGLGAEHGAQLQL
UniProt Q6PH81: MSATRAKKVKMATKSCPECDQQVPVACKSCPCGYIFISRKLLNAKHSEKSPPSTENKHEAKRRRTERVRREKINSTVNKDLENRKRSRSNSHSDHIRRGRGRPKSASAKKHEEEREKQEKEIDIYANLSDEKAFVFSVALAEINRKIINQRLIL

What was measured:
Test in all cases: log2 fold change, soluble protein after heating vs DMSO (PISA); higher = thermal stabilisation; K562 lysate, 10 uM; active = over 0.2 and 3.5 SD of the protein, either way, in both replicates (recomputed)
[1] = compound: CN1CC[C@H](c2c(O)cc(O)c3c(=O)cc(-c4ccccc4Cl)oc23)[C@H](O)C1 [alvocidib]
Method in brief: (§1)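 Log-two fold change in thermal stability relative to solvent controls is reported from duplicates. For each sample, crude K562 extract from dounce-homogenised pellets in PBS pH 7.4 with 1 mM MgCl2, at 1 mg/mL protein, was treated with 10 μM compound for 30 min. Aliquots heated for 3 min across 48°C-58°C were pooled, brought to 0.5% NP-40 at 4°C and cleared at 21,000xg for 90 min. The supernatant was quantified by TMTpro 16plex LC-MS/MS with channel sums equalised.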

[2] = compound: CN1CCc2c(c3ccccc3n2Cc2ccc(C(=O)NO)cc2)C1 [Tubastatin A]
Method in brief: as §1

[3] = compound: CNC(=O)C1=CC=CC=C1NC2=NC(=NC=C2Cl)NC3=C(C=C(C=C3)N4CCOCC4)OC
Method in brief: as §1

[4] = compound: CNC(=O)c1ccc(Nc2ncc(C(F)(F)F)c(NCc3nccnc3N(C)S(C)(=O)=O)n2)cc1 [defactinib]
Method in brief: as §1

[5] = compound: CNc1nc(-c2ccc3c(N)n[nH]c3c2)cc(N2C[C@@H](C(=O)NC3CCCCC3)CC[C@H]2C)n1
Method in brief: as §1

[6] = compound: COC(=O)N[C@@H](C)CNc1nccc(-c2cn(C(C)C)nc2-c2cc(Cl)cc(NS(C)(=O)=O)c2F)n1 [encorafenib]
Method in brief: as §1

[7] = compound: COC(=O)[C@H](CCSC)NC(=O)C1=C(C=C(C=C1)NC[C@H](CS)N)C2=CC=CC=C2
Method in brief: as §1

[8] = compound: COc1cc(Nc2ncc3c(n2)-c2ccc(Cl)cc2C(c2c(F)cccc2OC)=NC3)ccc1C(=O)O [alisertib]
Method in brief: as §1

[9] = compound: COc1cc2nc(-c3cc(F)ccc3O)nc(N[C@@H]3CNC[C@H]3C(C)(C)O)c2cc1OC
Method in brief: as §1

[10] = compound: COc1cc2ncnc(Nc3ccc(F)c(Cl)c3)c2cc1OCCCN1CCOCC1 [gefitinib]
Method in brief: as §1

Measured: log2 fold change

BZW1 isoform 3 (UniProt Q7L1Q6)
inactive: [1] 0.011 | [2] -0.051 | [3] -0.023 | [4] 0.014 | [5] -0.057 | [6] 0.011 | [7] -0.029 | [8] 0.017 | [9] 0.004 | [10] -0.018

C12orf65 (UniProt Q9H3J6)
inactive: [1] 0.022 | [2] 0.027 | [3] 0.001 | [4] 0.026 | [5] -0.056 | [6] 0.007 | [7] 0.018 | [8] -0.102 | [9] -0.004 | [10] -0.065

CAMSAP2 (UniProt Q08AD1)
inactive: [1] 0.078 | [2] 0.084 | [3] -0.035 | [4] -0.007 | [5] -0.043 | [6] 0.01 | [7] 0.077 | [8] -0.346 | [10] -0.068

C15orf41 (UniProt Q9Y2V0)
inactive: [1] -0.002 | [2] -0.036 | [3] 0.039 | [4] -0.13 | [5] 0.002 | [6] 0.126 | [7] -0.043 | [8] 0.023 | [9] 0.09 | [10] 0.006

CABIN1 (UniProt Q9Y6J0)
inactive: [1] 0.012 | [2] -0.131 | [3] -0.051 | [4] 0.036 | [5] 0.009 | [6] 0.25 | [7] 0.269 | [8] -0.031 | [9] 0.043 | [10] 0.034

CAPZB (UniProt P47756)
inactive: [1] 0.046 | [2] 0.032 | [3] -0.004 | [4] -0.004 | [5] 0.014 | [6] -0.015 | [7] 0.011 | [8] -0.01 | [9] 0.001 | [10] -0.044

CAMKK2 (UniProt Q96RR4)
inactive: [1] -0.018 | [2] -0.123 | [4] 0.059 | [5] -0.113 | [6] -0.013 | [7] 0.018 | [8] -0.01 | [9] 0.019 | [10] 0.021
active: [3] 0.277

BUD23 isoform 3 (UniProt O43709)
inactive: [1] -0.126 | [2] 0.14 | [3] 0.026 | [4] -0.046 | [5] -0.052 | [6] -0.017 | [7] 0.036 | [8] 0.082 | [9] 0.085 | [10] 0.054

CALB1 (UniProt P05937)
inactive: [1] 0.051 | [2] 0.036 | [3] -0.009 | [4] -0.017 | [5] -0.047 | [6] -0.015 | [7] -0.071 | [8] -0.018 | [9] 0.008 | [10] 0.024

BUD31 (UniProt P41223)
inactive: [1] 0.103 | [2] -0.001 | [3] 0.007 | [4] 0.01 | [5] -0.004 | [6] -0.018 | [7] -0.036 | [8] 0.021 | [9] -0.005 | [10] -0.069

C20orf27 isoform 2 (UniProt Q9GZN8)
inactive: [1] 0.049 | [2] 0.034 | [3] 0.027 | [4] -0.075 | [5] 0.094 | [6] -0.038 | [7] -0.008 | [8] -0.016 | [9] 0.018 | [10] -0.082

CA1 (UniProt P00915)
inactive: [1] -0.028 | [2] 0.039 | [3] -0.033 | [4] -0.005 | [5] 0.02 | [6] -0.032 | [7] -0.042 | [8] -0.036 | [9] 0.013 | [10] -0.011

CACUL1 (UniProt Q86Y37)
inactive: [1] 0.022 | [2] -0.029 | [3] -0.027 | [4] 0.027 | [5] -0.04 | [6] -0.02 | [7] -0.042 | [9] 0.212

C9orf72 (UniProt Q96LT7)
active: [7] 0.259
inactive: [1] 0.001 | [2] 0 | [3] -0.036 | [5] 0.058 | [6] 0.125 | [8] 0.014 | [9] 0.102 | [10] -0.106

C18orf21 (UniProt Q32NC0)
inactive: [1] 0.004 | [2] -0.119 | [3] -0.028 | [5] -0.017 | [8] -0.077 | [9] -0.172 | [10] -0.016

8 neighbouring entries already listed, quoted:
CABIN1 (UniProt Q9Y6J0)
inactive: [1] 0.012 | [2] -0.131 | [3] -0.051 | [4] 0.036 | [5] 0.009 | [6] 0.25 | [7] 0.269 | [8] -0.031 | [9] 0.043 | [10] 0.034

CAPZB (UniProt P47756)
inactive: [1] 0.046 | [2] 0.032 | [3] -0.004 | [4] -0.004 | [5] 0.014 | [6] -0.015 | [7] 0.011 | [8] -0.01 | [9] 0.001 | [10] -0.044

CAMKK2 (UniProt Q96RR4)
inactive: [1] -0.018 | [2] -0.123 | [4] 0.059 | [5] -0.113 | [6] -0.013 | [7] 0.018 | [8] -0.01 | [9] 0.019 | [10] 0.021
active: [3] 0.277

BUD23 isoform 3 (UniProt O43709)
inactive: [1] -0.126 | [2] 0.14 | [3] 0.026 | [4] -0.046 | [5] -0.052 | [6] -0.017 | [7] 0.036 | [8] 0.082 | [9] 0.085 | [10] 0.054

CALB1 (UniProt P05937)
inactive: [1] 0.051 | [2] 0.036 | [3] -0.009 | [4] -0.017 | [5] -0.047 | [6] -0.015 | [7] -0.071 | [8] -0.018 | [9] 0.008 | [10] 0.024

BUD31 (UniProt P41223)
inactive: [1] 0.103 | [2] -0.001 | [3] 0.007 | [4] 0.01 | [5] -0.004 | [6] -0.018 | [7] -0.036 | [8] 0.021 | [9] -0.005 | [10] -0.069

C20orf27 isoform 2 (UniProt Q9GZN8)
inactive: [1] 0.049 | [2] 0.034 | [3] 0.027 | [4] -0.075 | [5] 0.094 | [6] -0.038 | [7] -0.008 | [8] -0.016 | [9] 0.018 | [10] -0.082

CA1 (UniProt P00915)
inactive: [1] -0.028 | [2] 0.039 | [3] -0.033 | [4] -0.005 | [5] 0.02 | [6] -0.032 | [7] -0.042 | [8] -0.036 | [9] 0.013 | [10] -0.011

Later entries.

C4BPA (UniProt P04003)
inactive: [1] -0.055 | [2] 0.039 | [3] -0.016 | [4] -0.009 | [5] 0.144 | [8] -0.045 | [9] -0.019 | [10] 0.031

CAPN1 (UniProt E9PLX0)
inactive: [1] -0.021 | [2] 0.311 | [4] -0.427 | [6] -0.17 | [7] -0.101 | [8] -0.058 | [9] -0.074 | [10] 0.057

C11orf96 (UniProt Q7Z7L8)
inactive: [1] -0.032 | [2] -0.037 | [3] 0.078 | [5] 0.156 | [8] -0.031 | [9] -0.046 | [10] 0.017

C12orf73 (UniProt Q69YU5)
inactive: [1] -0.005 | [2] 0.081 | [3] -0.014 | [5] 0.055 | [8] 0.034 | [9] -0.041 | [10] -0.044

C9orf85 isoform 1 (UniProt Q96MD7)
inactive: [1] 0.018 | [2] 0.032 | [5] 0.204 | [8] 0.007 | [10] 0.025

C17orf80 (UniProt Q9BSJ5)
inactive: [1] -0.077 | [3] 0.072 | [4] -0.071 | [9] 0.009

C19orf25 (UniProt Q9UFG5)
inactive: [1] 0.056 | [2] 0.057 | [3] 0.153 | [4] 0.049 | [5] 0.137 | [8] 0.014 | [9] 0 | [10] -0.106

CAP1 (UniProt Q5T0R8)
inactive: [1] -0.02 | [3] 0.35 | [9] 0.129

CAB39L (UniProt Q9H9S4)
inactive: [1] -0.041 | [2] -0.048 | [3] -0.001 | [4] 0.013 | [5] 0.05 | [8] -0.034 | [9] 0.076 | [10] 0.02

C6orf120 (UniProt Q7Z4R8)
inactive: [1] 0.096 | [3] 0.031 | [5] 0.066 | [9] -0.026

C8orf88 (UniProt P0DMB2)
inactive: [1] 0.072 | [2] -0.064 | [3] 0.07 | [5] -0.015

C1orf174 (UniProt Q8IYL3)
inactive: [1] 0.033 | [2] 0.05 | [4] 0.015 | [5] 0.042 | [9] 0.028

BUD13 (UniProt Q9BRD0)
inactive: [1] 0.033 | [2] -0.015 | [3] -0.022 | [5] 0.068 | [6] 0.007 | [7] 0.004 | [8] 0.017 | [10] 0.108

C1orf167 isoform 2 (UniProt Q5SNV9)
inactive: [1] -0.118 | [2] 0.048 | [3] 0.034 | [4] -0.214 | [5] 0 | [8] 0.073 | [9] 0.035 | [10] 0.078

CACNA1C isoform 2 (UniProt Q13936)
inactive: [1] -0.152 | [3] 0.113 | [9] 0.079

BTRC (UniProt Q9Y297)
inactive: [1] -0.05 | [2] -0.019 | [3] -0.049 | [4] -0.018 | [6] 0.035 | [7] 0.172 | [8] -0.022 | [9] 0.096 | [10] -0.058

C16orf87 (UniProt Q6PH81)
inactive: [1] -0.078 | [2] 0.19 | [4] -0.105 | [5] 0.038 | [6] -0.102 | [7] 0.051 | [9] -0.043

C1GALT1 (UniProt Q9NS00)
inactive: [1] -0.022 | [2] 0.059 | [3] 0.121 | [4] 0.003 | [5] -0.02 | [9] 0.038
